Data from the supplement of paper PMC10849652.
Some of the results follow.

By UniProt entry, the sequences of proteins in these tests, tags left out. Where a name states a change or a piece, a line headed by the entry shows the natural chain unless it says otherwise.
UniProt P27694, whole entry, looked up: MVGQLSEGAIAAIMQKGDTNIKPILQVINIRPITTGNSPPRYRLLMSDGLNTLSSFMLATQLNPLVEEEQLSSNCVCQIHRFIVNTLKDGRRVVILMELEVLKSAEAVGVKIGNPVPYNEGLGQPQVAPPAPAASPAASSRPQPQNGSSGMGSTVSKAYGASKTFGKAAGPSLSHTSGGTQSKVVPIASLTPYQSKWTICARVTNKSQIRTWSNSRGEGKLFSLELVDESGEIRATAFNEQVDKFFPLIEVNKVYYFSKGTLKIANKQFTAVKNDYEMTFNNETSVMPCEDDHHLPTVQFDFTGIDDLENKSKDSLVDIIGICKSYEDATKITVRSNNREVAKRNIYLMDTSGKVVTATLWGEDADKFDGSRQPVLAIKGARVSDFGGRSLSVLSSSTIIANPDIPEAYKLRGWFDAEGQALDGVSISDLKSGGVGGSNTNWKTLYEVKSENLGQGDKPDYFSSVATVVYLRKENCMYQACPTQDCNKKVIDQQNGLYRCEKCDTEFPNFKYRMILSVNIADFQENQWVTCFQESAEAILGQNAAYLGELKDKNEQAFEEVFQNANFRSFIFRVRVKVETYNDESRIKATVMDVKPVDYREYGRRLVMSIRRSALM
UniProt Q96TC7: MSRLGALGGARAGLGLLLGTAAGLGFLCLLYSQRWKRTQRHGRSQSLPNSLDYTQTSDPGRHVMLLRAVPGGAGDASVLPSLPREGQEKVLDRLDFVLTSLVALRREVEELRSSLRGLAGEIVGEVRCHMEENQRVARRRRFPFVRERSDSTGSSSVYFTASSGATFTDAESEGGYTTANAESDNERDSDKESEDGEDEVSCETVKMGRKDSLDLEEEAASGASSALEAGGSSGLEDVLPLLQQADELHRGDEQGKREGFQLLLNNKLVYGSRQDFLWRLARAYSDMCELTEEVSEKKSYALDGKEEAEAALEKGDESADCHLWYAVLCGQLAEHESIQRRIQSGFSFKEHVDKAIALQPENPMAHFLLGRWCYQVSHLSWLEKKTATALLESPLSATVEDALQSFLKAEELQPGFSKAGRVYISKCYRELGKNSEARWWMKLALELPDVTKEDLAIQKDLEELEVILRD
UniProt Q15287: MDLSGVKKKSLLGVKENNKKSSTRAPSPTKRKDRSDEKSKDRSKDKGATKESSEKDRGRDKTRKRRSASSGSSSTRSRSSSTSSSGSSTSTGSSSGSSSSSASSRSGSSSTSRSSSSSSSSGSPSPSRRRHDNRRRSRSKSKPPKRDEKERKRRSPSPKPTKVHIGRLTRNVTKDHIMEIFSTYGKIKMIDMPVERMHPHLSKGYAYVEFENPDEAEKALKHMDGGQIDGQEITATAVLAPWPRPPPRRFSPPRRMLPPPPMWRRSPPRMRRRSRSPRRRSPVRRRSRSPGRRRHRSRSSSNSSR
UniProt Q6R327, whole entry, looked up: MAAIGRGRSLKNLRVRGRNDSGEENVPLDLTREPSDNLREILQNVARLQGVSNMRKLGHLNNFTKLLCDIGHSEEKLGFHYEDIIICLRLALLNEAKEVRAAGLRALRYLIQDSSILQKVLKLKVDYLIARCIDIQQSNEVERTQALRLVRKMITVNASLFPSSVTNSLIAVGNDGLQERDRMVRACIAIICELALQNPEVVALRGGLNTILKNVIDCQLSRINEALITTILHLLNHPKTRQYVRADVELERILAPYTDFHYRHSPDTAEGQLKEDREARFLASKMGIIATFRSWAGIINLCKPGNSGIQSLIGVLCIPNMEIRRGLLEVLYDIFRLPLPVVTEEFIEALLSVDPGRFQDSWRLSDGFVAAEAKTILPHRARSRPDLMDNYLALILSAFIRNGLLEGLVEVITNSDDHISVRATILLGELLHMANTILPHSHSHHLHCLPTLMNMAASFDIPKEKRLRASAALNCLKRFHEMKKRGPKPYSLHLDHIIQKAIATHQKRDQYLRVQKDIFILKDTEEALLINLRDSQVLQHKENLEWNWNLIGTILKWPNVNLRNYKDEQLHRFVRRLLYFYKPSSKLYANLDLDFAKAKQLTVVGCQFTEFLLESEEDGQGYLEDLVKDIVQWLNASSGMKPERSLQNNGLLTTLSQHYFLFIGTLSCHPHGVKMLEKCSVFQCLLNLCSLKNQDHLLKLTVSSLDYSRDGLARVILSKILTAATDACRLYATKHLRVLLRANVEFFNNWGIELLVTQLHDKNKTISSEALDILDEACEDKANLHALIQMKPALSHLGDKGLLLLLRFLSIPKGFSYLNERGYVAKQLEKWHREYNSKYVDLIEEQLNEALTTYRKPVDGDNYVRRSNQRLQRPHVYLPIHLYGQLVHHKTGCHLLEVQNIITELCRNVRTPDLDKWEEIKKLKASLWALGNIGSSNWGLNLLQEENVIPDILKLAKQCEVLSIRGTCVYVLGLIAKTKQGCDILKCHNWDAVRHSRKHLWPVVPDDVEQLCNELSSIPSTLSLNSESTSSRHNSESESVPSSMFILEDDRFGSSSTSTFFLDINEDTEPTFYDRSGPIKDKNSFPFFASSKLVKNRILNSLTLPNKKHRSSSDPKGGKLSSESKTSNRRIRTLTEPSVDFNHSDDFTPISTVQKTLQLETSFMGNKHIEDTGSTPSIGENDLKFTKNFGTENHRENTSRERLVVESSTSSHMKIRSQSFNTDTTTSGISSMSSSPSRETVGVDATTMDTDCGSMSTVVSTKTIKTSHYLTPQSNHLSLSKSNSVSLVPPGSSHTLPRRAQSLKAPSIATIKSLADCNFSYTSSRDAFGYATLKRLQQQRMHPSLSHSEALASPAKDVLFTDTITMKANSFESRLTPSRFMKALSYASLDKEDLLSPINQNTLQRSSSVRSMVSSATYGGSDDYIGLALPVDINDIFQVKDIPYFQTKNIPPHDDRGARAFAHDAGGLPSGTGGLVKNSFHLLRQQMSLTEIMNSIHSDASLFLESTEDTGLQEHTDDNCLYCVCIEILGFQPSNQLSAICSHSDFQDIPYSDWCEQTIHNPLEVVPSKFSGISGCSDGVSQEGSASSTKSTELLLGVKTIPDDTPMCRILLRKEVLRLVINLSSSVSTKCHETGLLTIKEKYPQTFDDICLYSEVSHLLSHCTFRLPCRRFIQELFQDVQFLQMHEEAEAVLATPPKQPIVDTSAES
UniProt Q06587: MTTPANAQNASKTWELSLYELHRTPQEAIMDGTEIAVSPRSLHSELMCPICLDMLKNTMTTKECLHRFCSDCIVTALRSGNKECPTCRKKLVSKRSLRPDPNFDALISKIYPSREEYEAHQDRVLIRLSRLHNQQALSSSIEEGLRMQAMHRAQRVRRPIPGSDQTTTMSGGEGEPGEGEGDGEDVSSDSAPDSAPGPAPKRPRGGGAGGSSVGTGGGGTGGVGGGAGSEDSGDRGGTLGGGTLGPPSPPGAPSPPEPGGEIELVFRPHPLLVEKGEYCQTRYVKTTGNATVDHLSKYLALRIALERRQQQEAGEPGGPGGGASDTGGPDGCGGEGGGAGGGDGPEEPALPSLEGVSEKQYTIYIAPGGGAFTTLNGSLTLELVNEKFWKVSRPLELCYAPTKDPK
UniProt Q13464: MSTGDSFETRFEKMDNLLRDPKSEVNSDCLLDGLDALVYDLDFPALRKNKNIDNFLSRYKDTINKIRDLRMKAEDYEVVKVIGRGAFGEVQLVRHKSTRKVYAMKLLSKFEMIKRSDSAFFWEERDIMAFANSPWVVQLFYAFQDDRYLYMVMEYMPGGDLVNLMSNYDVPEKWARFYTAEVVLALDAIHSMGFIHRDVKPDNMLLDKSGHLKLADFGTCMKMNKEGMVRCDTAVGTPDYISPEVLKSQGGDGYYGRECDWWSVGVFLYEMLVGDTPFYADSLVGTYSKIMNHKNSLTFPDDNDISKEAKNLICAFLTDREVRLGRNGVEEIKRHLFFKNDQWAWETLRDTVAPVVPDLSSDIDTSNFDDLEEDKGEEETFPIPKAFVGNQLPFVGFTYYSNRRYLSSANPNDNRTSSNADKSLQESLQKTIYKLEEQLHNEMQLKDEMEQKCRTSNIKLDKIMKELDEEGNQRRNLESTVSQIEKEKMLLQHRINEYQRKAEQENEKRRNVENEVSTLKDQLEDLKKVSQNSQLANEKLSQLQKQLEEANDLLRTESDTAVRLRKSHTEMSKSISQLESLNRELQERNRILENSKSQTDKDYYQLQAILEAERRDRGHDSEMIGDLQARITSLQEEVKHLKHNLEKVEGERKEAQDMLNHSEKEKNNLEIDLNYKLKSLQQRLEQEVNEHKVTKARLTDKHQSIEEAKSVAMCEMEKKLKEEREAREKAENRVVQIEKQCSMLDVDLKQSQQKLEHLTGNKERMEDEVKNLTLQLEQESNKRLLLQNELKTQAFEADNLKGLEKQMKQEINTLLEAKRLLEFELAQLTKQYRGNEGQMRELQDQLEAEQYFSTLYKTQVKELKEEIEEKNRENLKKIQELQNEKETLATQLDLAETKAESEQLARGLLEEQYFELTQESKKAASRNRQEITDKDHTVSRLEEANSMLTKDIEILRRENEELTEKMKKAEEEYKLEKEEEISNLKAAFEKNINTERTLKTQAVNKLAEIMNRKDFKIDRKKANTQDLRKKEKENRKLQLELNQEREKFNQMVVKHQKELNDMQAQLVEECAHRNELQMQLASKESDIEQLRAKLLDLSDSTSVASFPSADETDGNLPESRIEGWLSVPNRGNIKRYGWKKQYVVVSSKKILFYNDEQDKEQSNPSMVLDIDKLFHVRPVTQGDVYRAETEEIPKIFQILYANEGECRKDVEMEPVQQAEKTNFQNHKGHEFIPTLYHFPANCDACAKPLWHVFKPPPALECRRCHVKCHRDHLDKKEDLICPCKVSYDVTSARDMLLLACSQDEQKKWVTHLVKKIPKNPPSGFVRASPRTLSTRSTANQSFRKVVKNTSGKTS
UniProt Q8WVD3: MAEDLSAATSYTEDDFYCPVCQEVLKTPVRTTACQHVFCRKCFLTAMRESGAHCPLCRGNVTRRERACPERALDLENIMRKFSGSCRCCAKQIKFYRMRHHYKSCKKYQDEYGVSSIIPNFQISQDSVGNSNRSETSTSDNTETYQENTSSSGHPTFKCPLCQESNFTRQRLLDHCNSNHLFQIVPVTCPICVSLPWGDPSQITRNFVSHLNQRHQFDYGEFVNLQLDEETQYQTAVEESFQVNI
UniProt Q8IYW5, whole entry, looked up: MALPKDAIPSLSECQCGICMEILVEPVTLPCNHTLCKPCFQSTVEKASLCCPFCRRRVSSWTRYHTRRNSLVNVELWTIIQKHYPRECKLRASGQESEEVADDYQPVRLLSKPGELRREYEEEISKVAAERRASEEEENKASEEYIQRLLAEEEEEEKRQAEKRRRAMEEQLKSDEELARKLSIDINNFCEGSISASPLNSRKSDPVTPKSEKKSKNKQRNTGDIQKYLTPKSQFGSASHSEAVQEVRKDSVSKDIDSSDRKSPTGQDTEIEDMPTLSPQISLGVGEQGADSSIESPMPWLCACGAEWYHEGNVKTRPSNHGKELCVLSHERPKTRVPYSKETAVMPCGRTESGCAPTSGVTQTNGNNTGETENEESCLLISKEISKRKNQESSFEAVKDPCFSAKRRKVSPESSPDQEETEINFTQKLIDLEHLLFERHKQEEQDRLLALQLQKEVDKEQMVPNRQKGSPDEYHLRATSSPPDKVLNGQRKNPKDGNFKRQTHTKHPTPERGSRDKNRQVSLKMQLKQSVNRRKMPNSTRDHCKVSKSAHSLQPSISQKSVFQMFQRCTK
UniProt Q7L0Q8: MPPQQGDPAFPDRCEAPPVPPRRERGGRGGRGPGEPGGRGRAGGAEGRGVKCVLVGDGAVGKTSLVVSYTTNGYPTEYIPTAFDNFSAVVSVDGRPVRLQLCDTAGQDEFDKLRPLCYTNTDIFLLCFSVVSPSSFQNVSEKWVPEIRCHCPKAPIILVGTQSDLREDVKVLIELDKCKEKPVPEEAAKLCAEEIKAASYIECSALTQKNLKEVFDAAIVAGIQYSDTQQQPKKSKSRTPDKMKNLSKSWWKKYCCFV
UniProt Q8NC42: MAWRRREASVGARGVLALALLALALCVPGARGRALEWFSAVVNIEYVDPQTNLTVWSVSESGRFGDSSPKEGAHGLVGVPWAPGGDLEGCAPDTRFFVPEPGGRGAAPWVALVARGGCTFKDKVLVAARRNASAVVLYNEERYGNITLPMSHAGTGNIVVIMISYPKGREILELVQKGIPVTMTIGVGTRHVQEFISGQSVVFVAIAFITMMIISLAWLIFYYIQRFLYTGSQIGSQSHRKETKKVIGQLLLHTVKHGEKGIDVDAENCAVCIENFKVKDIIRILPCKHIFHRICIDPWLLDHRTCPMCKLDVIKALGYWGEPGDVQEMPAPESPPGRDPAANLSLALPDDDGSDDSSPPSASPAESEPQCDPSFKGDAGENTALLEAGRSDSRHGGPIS

How the values were obtained:
Assay in all cases: log2 fold change, soluble protein after heating vs DMSO (PISA); higher = thermal stabilisation; K562 lysate, 10 uM; active = over 0.2 and 3.5 SD of the protein, either way, in both replicates (recomputed)
vemurafenib = compound: CCCS(=O)(=O)Nc1ccc(F)c(C(=O)c2c[nH]c3ncc(-c4ccc(Cl)cc4)cc23)c1F [vemurafenib]
Method in brief: (§1)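 K562 pellets were dounce-homogenised in PBS pH 7.4 with 1 mM MgCl2, and the crude extract at 1 mg/mL protein was treated with 10 μM compound for 30 min. Aliquots were heated for 3 min across 48°C-58°C, pooled, and brought to 0.5% NP-40 at 4°C; soluble protein was the supernatant after 21,000xg for 90 min. Soluble protein was quantified by TMTpro 16plex LC-MS/MS with channel sums equalised, and reported as log2 fold change in thermal stability against DMSO controls, with values from duplicates.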

[1] = compound: CCCS(=O)(=O)Nc1ccc(F)c(C(=O)c2c[nH]c3ncc(Cl)cc23)c1F
Method in brief: as §1

barasertib = compound: CCN(CCCOc1ccc2c(Nc3cc(CC(=O)Nc4cccc(F)c4)[nH]n3)ncnc2c1)CCOP(=O)(O)O [barasertib]
Method in brief: as §1

[2] = compound: CC[C@@H]1C(=O)N(C)c2cnc(Nc3ccc(C(=O)NC4CCN(C)CC4)cc3OC)nc2N1C1CCCC1
Method in brief: as §1

volasertib = compound: CC[C@@H]1C(=O)N(C)c2cnc(Nc3ccc(C(=O)N[C@H]4CC[C@H](N5CCN(CC6CC6)CC5)CC4)cc3OC)nc2N1C(C)C [volasertib]
Method in brief: as §1

[3] = compound: CCn1c(C(=O)N(C2CC2)C2CC2)cc2c3c(ncn3C)c(Nc3cc(C)n(C)n3)nc21
Method in brief: as §1

[4] = compound: CCn1cc(-c2ccnc3[nH]c(-c4cccc(CN(C)C)c4)cc23)c(-c2ccc(NC(=O)N(C)C)cc2)n1
Method in brief: as §1

[5] = compound: CN1CCC(CNc2ccc3ncc(-c4cccc(OC(F)(F)F)c4)n3n2)CC1
Method in brief: as §1

saracatinib = compound: CN1CCN(CCOc2cc(OC3CCOCC3)c3c(Nc4c(Cl)ccc5c4OCO5)ncnc3c2)CC1 [saracatinib]
Method in brief: as §1

sotrastaurin = compound: CN1CCN(c2nc(C3=C(c4c[nH]c5ccccc45)C(=O)NC3=O)c3ccccc3n2)CC1 [sotrastaurin]
Method in brief: as §1

Measured: log2 fold change

RPA1 (UniProt P27694)
inactive: vemurafenib -0.016 | [1] 0.03 | barasertib 0.006 | [2] 0 | volasertib -0.003 | [3] 0.001 | [4] 0.114 | [5] -0.099 | saracatinib -0.016 | sotrastaurin -0.006

RHOXF2B (UniProt P0C7M4)
inactive: vemurafenib 0.123 | [1] -0.015 | volasertib 0.043 | [3] 0.016 | saracatinib 0.061

RMDN3 (UniProt Q96TC7)
inactive: vemurafenib 0.003 | [1] -0.003 | barasertib 0.063 | [2] 0.004 | volasertib 0 | [3] 0.024 | [4] -0.158 | [5] -0.033 | saracatinib -0.041 | sotrastaurin 0.02

RNPS1 (UniProt Q15287)
inactive: vemurafenib -0.03 | [1] 0.001 | barasertib -0.008 | [2] -0.175 | volasertib 0.043 | [3] -0.022 | [4] 0.02 | [5] 0.077 | saracatinib -0.04 | sotrastaurin -0.003

RO60 (UniProt P10155)
inactive: vemurafenib -0.02 | [1] -0.005 | barasertib -0.017 | [2] 0.02 | volasertib 0.024 | [3] -0.018 | [4] 0.025 | [5] -0.06 | saracatinib -0.012 | sotrastaurin -0.015

RICTOR isoform 3 (UniProt Q6R327)
inactive: vemurafenib -0.325 | [1] 0.045 | barasertib -0.076 | [2] 0.041 | volasertib -0.061 | [3] 0.041 | [4] -0.061 | [5] -0.096 | saracatinib 0.033 | sotrastaurin -0.007

RING1 (UniProt Q06587)
inactive: vemurafenib 0.027 | [1] -0.005 | barasertib 0.013 | [2] -0.031 | volasertib -0.024 | [3] -0.039 | [4] -0.077 | [5] 0.08 | saracatinib 0.02 | sotrastaurin -0.003

ROCK1 (UniProt Q13464)
inactive: vemurafenib 0.014 | [1] 0.004 | barasertib 0.004 | [2] 0.018 | volasertib -0.045 | [3] 0.001 | [4] -0.017 | [5] 0.025 | saracatinib -0.017 | sotrastaurin 0.015

RNF138 (UniProt Q8WVD3)
inactive: vemurafenib 0.092 | barasertib -0.007 | [2] 0.078 | [3] 0.014 | [4] -0.02 | [5] 0.007 | saracatinib 0.032 | sotrastaurin 0.068

Retrieved one by one from above (two):
RICTOR isoform 3 (UniProt Q6R327)
inactive: vemurafenib -0.325 | [1] 0.045 | barasertib -0.076 | [2] 0.041 | volasertib -0.061 | [3] 0.041 | [4] -0.061 | [5] -0.096 | saracatinib 0.033 | sotrastaurin -0.007

RING1 (UniProt Q06587)
inactive: vemurafenib 0.027 | [1] -0.005 | barasertib 0.013 | [2] -0.031 | volasertib -0.024 | [3] -0.039 | [4] -0.077 | [5] 0.08 | saracatinib 0.02 | sotrastaurin -0.003

The listing continues.

RNF168 (UniProt Q8IYW5)
inactive: vemurafenib 0.152 | [1] 0.134 | barasertib 0.235 | [2] 0.128 | volasertib -0.062 | [3] 0.138 | [4] 0.015 | [5] 0.035 | saracatinib -0.007 | sotrastaurin -0.06

RPL13 (UniProt P26373)
inactive: vemurafenib 0.011 | [1] -0.015 | barasertib -0.049 | [2] -0.031 | volasertib -0.01 | [3] -0.018 | [4] -0.076 | [5] 0.045 | saracatinib 0.001 | sotrastaurin -0.001

RHOU (UniProt Q7L0Q8)
inactive: vemurafenib -0.04 | [1] -0.059 | [2] -0.122 | volasertib 0.008 | [3] -0.006 | [4] 0.173 | [5] 0.015 | saracatinib -0.027 | sotrastaurin 0.036

RPL23 (UniProt P62829)
inactive: vemurafenib 0 | [1] -0.016 | barasertib -0.038 | [2] 0.007 | volasertib 0.004 | [3] -0.012 | [4] -0.045 | [5] -0.004 | saracatinib -0.004 | sotrastaurin -0.008

RNF149 (UniProt Q8NC42)
inactive: vemurafenib -0.026 | [1] -0.15 | barasertib 0.026 | volasertib -0.063 | [3] -0.162 | [4] 0.343 | [5] 0.02 | saracatinib 0.021 | sotrastaurin -0.081

RMND1 (UniProt Q9NWS8)
inactive: vemurafenib -0.02 | [1] -0.023 | barasertib -0.001 | [2] 0.05 | volasertib -0.019 | [3] 0.046 | [4] -0.035 | [5] 0.013 | saracatinib 0.029 | sotrastaurin 0.029
